# Measurements taken from the supplement of paper PMC10032668.
# The chains behind the UniProt entries cited, without tags or fusion partners.
# CNOT3, O75175, UniProt O75175, whole entry: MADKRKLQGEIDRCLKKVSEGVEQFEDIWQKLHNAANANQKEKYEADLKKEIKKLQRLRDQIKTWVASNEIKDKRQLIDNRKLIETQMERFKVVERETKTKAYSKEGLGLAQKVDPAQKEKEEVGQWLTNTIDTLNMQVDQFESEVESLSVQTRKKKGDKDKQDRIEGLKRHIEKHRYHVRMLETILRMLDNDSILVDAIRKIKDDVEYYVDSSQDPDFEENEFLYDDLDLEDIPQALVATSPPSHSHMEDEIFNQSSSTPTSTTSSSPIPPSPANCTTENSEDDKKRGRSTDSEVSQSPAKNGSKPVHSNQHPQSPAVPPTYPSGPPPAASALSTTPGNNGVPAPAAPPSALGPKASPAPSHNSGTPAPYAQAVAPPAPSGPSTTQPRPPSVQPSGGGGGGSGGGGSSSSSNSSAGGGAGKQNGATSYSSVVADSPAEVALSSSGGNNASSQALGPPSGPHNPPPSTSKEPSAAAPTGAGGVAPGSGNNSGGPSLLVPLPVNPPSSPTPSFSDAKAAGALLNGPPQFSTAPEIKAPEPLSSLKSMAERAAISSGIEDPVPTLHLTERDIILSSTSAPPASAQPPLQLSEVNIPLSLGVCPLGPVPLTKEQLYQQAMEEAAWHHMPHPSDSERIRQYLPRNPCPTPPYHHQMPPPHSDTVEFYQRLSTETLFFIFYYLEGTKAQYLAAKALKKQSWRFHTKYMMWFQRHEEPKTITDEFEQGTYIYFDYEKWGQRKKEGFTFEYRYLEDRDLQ
# EPB41L2, O43491, UniProt O43491, whole entry: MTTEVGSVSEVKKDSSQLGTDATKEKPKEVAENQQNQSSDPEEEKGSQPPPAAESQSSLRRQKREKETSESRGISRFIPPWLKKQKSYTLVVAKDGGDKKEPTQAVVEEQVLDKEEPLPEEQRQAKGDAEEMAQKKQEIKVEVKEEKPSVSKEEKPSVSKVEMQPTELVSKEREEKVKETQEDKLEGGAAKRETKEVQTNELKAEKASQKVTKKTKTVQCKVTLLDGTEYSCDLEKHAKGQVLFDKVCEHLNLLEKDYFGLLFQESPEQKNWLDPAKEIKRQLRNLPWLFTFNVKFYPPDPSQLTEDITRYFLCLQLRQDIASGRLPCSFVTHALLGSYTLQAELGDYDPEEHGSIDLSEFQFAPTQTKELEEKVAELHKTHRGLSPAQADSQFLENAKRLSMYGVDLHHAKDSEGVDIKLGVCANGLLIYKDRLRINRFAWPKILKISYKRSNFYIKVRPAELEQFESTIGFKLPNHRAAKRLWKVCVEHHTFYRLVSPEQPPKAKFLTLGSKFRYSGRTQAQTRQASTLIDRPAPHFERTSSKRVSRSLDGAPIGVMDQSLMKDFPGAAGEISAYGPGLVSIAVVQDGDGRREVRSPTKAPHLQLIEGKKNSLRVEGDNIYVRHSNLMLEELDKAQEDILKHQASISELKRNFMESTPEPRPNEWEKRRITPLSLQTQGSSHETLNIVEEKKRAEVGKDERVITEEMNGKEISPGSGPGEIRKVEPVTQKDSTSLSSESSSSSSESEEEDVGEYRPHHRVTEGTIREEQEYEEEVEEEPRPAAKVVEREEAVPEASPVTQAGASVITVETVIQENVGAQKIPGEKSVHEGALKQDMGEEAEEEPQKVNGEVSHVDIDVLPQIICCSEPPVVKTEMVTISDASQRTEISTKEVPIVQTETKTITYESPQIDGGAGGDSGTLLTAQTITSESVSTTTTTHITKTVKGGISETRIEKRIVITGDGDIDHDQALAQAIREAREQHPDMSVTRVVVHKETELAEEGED
# NDUFS7, O75251, UniProt O75251, whole entry: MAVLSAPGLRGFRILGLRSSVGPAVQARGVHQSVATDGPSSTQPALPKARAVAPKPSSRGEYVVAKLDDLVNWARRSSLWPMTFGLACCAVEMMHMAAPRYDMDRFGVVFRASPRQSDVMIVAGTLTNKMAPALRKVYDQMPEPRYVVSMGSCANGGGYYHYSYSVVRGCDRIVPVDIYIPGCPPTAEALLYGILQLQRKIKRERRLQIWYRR
# NUP153, P49790, UniProt P49790, whole entry: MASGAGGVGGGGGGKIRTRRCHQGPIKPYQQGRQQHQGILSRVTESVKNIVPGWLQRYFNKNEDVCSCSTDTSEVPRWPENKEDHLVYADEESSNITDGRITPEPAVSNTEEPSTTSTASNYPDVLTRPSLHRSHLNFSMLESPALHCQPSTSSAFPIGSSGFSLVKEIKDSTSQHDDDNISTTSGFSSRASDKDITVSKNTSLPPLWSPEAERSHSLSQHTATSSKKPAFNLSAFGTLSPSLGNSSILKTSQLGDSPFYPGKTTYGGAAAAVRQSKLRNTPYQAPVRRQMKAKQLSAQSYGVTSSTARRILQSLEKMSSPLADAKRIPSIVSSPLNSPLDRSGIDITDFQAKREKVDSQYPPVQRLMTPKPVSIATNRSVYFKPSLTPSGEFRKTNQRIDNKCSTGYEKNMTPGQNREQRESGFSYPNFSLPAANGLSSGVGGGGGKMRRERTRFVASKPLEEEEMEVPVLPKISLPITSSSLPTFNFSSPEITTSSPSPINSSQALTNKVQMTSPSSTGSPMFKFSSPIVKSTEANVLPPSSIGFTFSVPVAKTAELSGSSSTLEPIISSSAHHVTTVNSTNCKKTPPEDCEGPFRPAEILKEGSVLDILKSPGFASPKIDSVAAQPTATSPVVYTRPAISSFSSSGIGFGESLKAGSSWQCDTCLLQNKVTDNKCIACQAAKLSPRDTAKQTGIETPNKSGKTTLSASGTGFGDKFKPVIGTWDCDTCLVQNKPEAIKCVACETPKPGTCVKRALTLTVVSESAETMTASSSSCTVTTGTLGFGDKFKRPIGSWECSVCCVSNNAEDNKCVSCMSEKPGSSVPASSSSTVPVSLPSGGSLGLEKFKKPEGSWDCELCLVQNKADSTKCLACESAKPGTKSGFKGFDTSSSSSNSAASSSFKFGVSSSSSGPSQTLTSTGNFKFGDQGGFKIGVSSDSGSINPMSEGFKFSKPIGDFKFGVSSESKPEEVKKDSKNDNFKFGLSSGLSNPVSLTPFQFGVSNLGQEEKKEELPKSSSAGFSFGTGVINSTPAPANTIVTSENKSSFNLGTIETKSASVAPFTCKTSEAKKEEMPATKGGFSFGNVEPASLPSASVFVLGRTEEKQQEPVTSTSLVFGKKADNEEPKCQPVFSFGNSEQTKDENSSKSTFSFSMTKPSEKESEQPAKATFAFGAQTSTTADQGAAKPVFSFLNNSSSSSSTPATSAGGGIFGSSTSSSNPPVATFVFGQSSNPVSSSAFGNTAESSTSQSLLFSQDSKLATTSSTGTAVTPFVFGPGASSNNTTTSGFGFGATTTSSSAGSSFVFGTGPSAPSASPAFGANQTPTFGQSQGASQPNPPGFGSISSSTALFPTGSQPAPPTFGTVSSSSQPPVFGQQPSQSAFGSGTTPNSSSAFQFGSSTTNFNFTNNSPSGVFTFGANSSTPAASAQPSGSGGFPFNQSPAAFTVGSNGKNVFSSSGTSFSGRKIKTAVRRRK
# DEFA3, P59666, UniProt P59666, whole entry: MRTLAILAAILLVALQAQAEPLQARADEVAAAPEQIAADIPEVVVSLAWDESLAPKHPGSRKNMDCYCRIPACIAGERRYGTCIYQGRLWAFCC
# DLD, P09622, UniProt P09622, whole entry: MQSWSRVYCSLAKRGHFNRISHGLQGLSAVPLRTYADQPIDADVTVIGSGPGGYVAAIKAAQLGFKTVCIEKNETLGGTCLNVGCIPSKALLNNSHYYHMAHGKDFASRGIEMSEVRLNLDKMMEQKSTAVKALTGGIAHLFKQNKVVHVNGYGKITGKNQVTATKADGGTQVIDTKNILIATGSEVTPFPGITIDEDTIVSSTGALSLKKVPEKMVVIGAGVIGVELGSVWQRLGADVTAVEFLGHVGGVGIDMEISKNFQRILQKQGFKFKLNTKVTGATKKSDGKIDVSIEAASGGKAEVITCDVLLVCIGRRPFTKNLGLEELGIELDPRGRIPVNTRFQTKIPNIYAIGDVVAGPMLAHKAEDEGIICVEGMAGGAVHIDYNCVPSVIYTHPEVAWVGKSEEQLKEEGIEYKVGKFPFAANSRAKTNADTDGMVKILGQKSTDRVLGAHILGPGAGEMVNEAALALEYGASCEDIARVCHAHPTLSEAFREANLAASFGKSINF
# EIF3G, O75821, UniProt O75821, whole entry: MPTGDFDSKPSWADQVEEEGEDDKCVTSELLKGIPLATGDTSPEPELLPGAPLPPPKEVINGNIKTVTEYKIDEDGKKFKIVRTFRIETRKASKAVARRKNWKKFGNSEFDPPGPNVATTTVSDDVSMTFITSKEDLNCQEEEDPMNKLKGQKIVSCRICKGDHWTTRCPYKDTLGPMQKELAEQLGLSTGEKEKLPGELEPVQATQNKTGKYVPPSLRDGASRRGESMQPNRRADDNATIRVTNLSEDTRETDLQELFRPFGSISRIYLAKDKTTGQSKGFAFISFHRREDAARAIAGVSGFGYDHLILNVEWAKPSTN
# GTF2F2, P13984, UniProt P13984, whole entry: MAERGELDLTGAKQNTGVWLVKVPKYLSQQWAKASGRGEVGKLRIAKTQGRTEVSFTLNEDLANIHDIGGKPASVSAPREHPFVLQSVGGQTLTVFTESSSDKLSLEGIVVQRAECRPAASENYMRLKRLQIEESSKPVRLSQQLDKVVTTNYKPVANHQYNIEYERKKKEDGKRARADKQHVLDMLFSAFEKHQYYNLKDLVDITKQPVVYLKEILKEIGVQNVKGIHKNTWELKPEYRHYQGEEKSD
# HSPB1, P04792, UniProt P04792, whole entry: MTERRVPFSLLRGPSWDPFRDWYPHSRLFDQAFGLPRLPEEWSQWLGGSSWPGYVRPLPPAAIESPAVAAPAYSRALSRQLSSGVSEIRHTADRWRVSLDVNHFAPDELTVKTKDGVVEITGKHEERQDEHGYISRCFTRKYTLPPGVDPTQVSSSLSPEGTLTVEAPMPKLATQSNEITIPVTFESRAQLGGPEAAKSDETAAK
# Some of the results follow. Only hits are listed; about a third recur on repeated control peptides.
# Key:
# Assay in all cases: PRISMA enrichment of interactor (LFQ) in peptide spot vs all other peptide spots (log2 fold change); higher = stronger / more specific binding of the interactor to the peptide
# CDIPT, O14735 = target: CDIPT, O14735
# Experimental: (§1)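 PRISMA: 15-aa overlapping tiles (offset 8 aa) of 60 microproteins, plus SOS1/GLUT1 control peptides, were spot-synthesized on cellulose membranes in triplicate. Membranes were incubated with benzonase-treated HEK293T lysate, and bound proteins were identified by LC-MS/MS with LFQ. Enrichment is the log2 fold change of each protein in one spot versus all other spots. Only interactors passing the significance cutoff are listed.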
# CNOT3, O75175 = target: CNOT3, O75175
# Experimental: as §1
# EIF4H, Q15056 = target: EIF4H, Q15056
# Experimental: as §1
# ENAH, Q8N8S7 = target: ENAH, Q8N8S7
# Experimental: as §1
# EPB41L2, O43491 = target: EPB41L2, O43491
# Experimental: as §1
# ESYT2, A0FGR8 = target: ESYT2, A0FGR8
# Experimental: as §1
# FAM83D, Q9H4H8 = target: FAM83D, Q9H4H8
# Experimental: as §1
# GPATCH8, Q9UKJ3 = target: GPATCH8, Q9UKJ3
# Experimental: as §1
# KIF20B, Q96Q89 = target: KIF20B, Q96Q89
# Experimental: as §1
# KRI1, Q8N9T8 = target: KRI1, Q8N9T8
# Experimental: as §1
# MCM6, Q14566 = target: MCM6, Q14566
# Experimental: as §1
# NDUFS7, O75251 = target: NDUFS7, O75251
# Experimental: as §1
# NUP153, P49790 = target: NUP153, P49790
# Experimental: as §1
# PBK, Q96KB5 = target: PBK, Q96KB5
# Experimental: as §1
# PRKAA2, P54646 = target: PRKAA2, P54646
# Experimental: as §1
# PRRC2B, Q5JSZ5 = target: PRRC2B, Q5JSZ5
# Experimental: as §1
# PRRC2C, Q9Y520 = target: PRRC2C, Q9Y520
# Experimental: as §1
# RAB35, Q15286 = target: RAB35, Q15286
# Experimental: as §1
# SLC25A33, Q9BSK2 = target: SLC25A33, Q9BSK2
# Experimental: as §1
# SRFBP1, Q8NEF9 = target: SRFBP1, Q8NEF9
# Experimental: as §1
# UBAC2, Q8NBM4 = target: UBAC2, Q8NBM4
# Experimental: as §1
# CDK11A, Q9UQ88 = target: CDK11A, Q9UQ88
# Experimental: as §1
# DDX6, P26196 = target: DDX6, P26196
# Experimental: as §1
# GLRX3, O76003 = target: GLRX3, O76003
# Experimental: as §1
# RGN, Q15493 = target: RGN, Q15493
# Experimental: as §1
# RPP30, P78346 = target: RPP30, P78346
# Experimental: as §1
# CDK12, Q9NYV4 = target: CDK12, Q9NYV4
# Experimental: as §1
# DCP1A, Q9NPI6 = target: DCP1A, Q9NPI6
# Experimental: as §1
# DEFA3, P59666 = target: DEFA3, P59666
# Experimental: as §1
# DLD, P09622 = target: DLD, P09622
# Experimental: as §1
# EARS2, Q5JPH6 = target: EARS2, Q5JPH6
# Experimental: as §1
# EDC4, Q6P2E9 = target: EDC4, Q6P2E9
# Experimental: as §1
# EIF3G, O75821 = target: EIF3G, O75821
# Experimental: as §1
# GTF2F2, P13984 = target: GTF2F2, P13984
# Experimental: as §1
# HSPB1, P04792 = target: HSPB1, P04792
# Experimental: as §1
# MAP7, Q14244 = target: MAP7, Q14244
# Experimental: as §1
# MCM5, P33992 = target: MCM5, P33992
# Experimental: as §1
# NSA2, O95478 = target: NSA2, O95478
# Experimental: as §1
# NSD2, O96028 = target: NSD2, O96028
# Experimental: as §1
# NUP98, P52948 = target: NUP98, P52948
# Experimental: as §1
# OAT, P04181 = target: OAT, P04181
# Experimental: as §1
# ORC5, O43913 = target: ORC5, O43913
# Experimental: as §1
# S100A9, P06702 = target: S100A9, P06702
# Experimental: as §1
# SBDS, Q9Y3A5 = target: SBDS, Q9Y3A5
# Experimental: as §1
# SDF2L1, Q9HCN8 = target: SDF2L1, Q9HCN8
# Experimental: as §1
# SGPP1, Q9BX95 = target: SGPP1, Q9BX95
# Experimental: as §1
binder,measurement,setting,value
RSQDTFGGPGRRVCW [RP11-464C19.3],PRISMA enrichment of interactor (log2),"CDIPT, O14735",4.06
same,PRISMA enrichment of interactor (log2),"CNOT3, O75175",5.47
same,PRISMA enrichment of interactor (log2),"EIF4H, Q15056",4.54
same,PRISMA enrichment of interactor (log2),"ENAH, Q8N8S7",6.34
same,PRISMA enrichment of interactor (log2),"EPB41L2, O43491",8.82
same,PRISMA enrichment of interactor (log2),"ESYT2, A0FGR8",4.63
same,PRISMA enrichment of interactor (log2),"FAM83D, Q9H4H8",5.8
same,PRISMA enrichment of interactor (log2),"GPATCH8, Q9UKJ3",4.71
same,PRISMA enrichment of interactor (log2),"KIF20B, Q96Q89",3.95
same,PRISMA enrichment of interactor (log2),"KRI1, Q8N9T8",5.58
same,PRISMA enrichment of interactor (log2),"MCM6, Q14566",4.78
same,PRISMA enrichment of interactor (log2),"NDUFS7, O75251",6.51
same,PRISMA enrichment of interactor (log2),"NUP153, P49790",5.42
same,PRISMA enrichment of interactor (log2),"PBK, Q96KB5",4.9
same,PRISMA enrichment of interactor (log2),"PRKAA2, P54646",4.39
same,PRISMA enrichment of interactor (log2),"PRRC2B, Q5JSZ5",5.91
same,PRISMA enrichment of interactor (log2),"PRRC2C, Q9Y520",5.25
same,PRISMA enrichment of interactor (log2),"RAB35, Q15286",5.25
same,PRISMA enrichment of interactor (log2),"SLC25A33, Q9BSK2",7.19
same,PRISMA enrichment of interactor (log2),"SRFBP1, Q8NEF9",4.71
same,PRISMA enrichment of interactor (log2),"UBAC2, Q8NBM4",8.26
RKNWLLVAGISFIGV [MKKS_2],PRISMA enrichment of interactor (log2),"CDK11A, Q9UQ88",5.28
same,PRISMA enrichment of interactor (log2),"DDX6, P26196",7.09
same,PRISMA enrichment of interactor (log2),"GLRX3, O76003",6.69
same,PRISMA enrichment of interactor (log2),"RGN, Q15493",4.95
same,PRISMA enrichment of interactor (log2),"RPP30, P78346",7.91
LCMAMVRKSSALGKE [IDI2-AS1],PRISMA enrichment of interactor (log2),"CDK12, Q9NYV4",4.81
same,PRISMA enrichment of interactor (log2),"DCP1A, Q9NPI6",3.97
same,PRISMA enrichment of interactor (log2),"DEFA3, P59666",4.76
same,PRISMA enrichment of interactor (log2),"DLD, P09622",6.29
same,PRISMA enrichment of interactor (log2),"EARS2, Q5JPH6",5.59
same,PRISMA enrichment of interactor (log2),"EDC4, Q6P2E9",4.37
same,PRISMA enrichment of interactor (log2),"EIF3G, O75821",8.55
same,PRISMA enrichment of interactor (log2),"GTF2F2, P13984",4.96
same,PRISMA enrichment of interactor (log2),"HSPB1, P04792",5.52
same,PRISMA enrichment of interactor (log2),"MAP7, Q14244",6.16
same,PRISMA enrichment of interactor (log2),"MCM5, P33992",5.42
same,PRISMA enrichment of interactor (log2),"NSA2, O95478",4.73
same,PRISMA enrichment of interactor (log2),"NSD2, O96028",9.72
same,PRISMA enrichment of interactor (log2),"NUP98, P52948",6.1
same,PRISMA enrichment of interactor (log2),"OAT, P04181",5
same,PRISMA enrichment of interactor (log2),"ORC5, O43913",6.02
same,PRISMA enrichment of interactor (log2),"S100A9, P06702",7.63
same,PRISMA enrichment of interactor (log2),"SBDS, Q9Y3A5",5.29
same,PRISMA enrichment of interactor (log2),"SDF2L1, Q9HCN8",4.92
same,PRISMA enrichment of interactor (log2),"SGPP1, Q9BX95",4.58

# Not a retest: entries from further up.
binder,measurement,setting,value
LCMAMVRKSSALGKE [IDI2-AS1],PRISMA enrichment of interactor (log2),"MCM5, P33992",5.42
same,PRISMA enrichment of interactor (log2),"NSA2, O95478",4.73
